These are yes or no findings as the source states them, for the method shown. Some results given as binding are weak or reduced against the parent protein; the word gives no strength.

Amino acid sequences for entries named in this document (tags omitted). Residues count along the entry.
UniProt Q08722, residues 19-323: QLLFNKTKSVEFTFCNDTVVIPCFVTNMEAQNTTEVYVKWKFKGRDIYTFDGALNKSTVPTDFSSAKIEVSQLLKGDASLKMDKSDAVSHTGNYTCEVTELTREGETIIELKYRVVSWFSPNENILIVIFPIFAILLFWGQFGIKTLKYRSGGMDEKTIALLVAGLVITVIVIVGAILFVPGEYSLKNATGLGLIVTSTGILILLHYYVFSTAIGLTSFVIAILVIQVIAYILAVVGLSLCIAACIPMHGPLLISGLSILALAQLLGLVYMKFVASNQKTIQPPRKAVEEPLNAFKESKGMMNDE

These results are taken from patent publication US20040058393A1 (published 2004).

Assay [1] addresses human Integrin Associated Protein (IAP) expressed on mouse leukemia cell line L1210 (human) (UniProt Q08722). Briefly: flow cytometry, COS7 supernatant on hIAP/L1210 cells.
For assay [2] the target is unchanged. Briefly: flow cytometry, COS7 supernatant on hIAP/L1210 cells, anti-FLAG and FITC anti-mouse IgG.

B1: MABL2-scFv <HL-5> (COS7 culture supernatant) (scFv)
scFv: QVQLQQSGPELVKPGASVKMSCKASGYTFANHVIHWVKQKPGQGLEWIGYIYPYNDGTKYNEKFKDKATLTSDKSSTTAYMDLSSLASEDSAVYYCARGGYYTYDDWGQGTTLTVSSGGGGSDVVMTQSPLSLPVSLGDQASISCRSSQSLVHSNGKTYLHWYLQKPGQSPKLLIYKVSNRFSGVPDRFSGSGSVTDFTLMISRVEAEDLGVYFCSQSTHVPYTFGGGTKLEIKDYKDDDDK
For the molecule B1, the binding result in assay [1] and in assay [2] was “binds” in each case.

B2: MABL2-scFv <LH-5> (scFv)
scFv: DVVMTQSPLSLPVSLGDQASISCRSSQSLVHSNGKTYLHWYLQKPGQSPKLLIYKVSNRFSGVPDRFSGSGSVTDFTLMISRVEAEDLGVYFCSQSTHVPYTFGGGTKLEIKSGGGGQVQLQQSGPELVKPGASVKMSCKASGYTFANHVIHWVKQKPGQGLEWIGYIYPYNDGTKYNEKFKDKATLTSDKSSTTAYMDLSSLASEDSAVYYCARGGYYTYDDWGQGTTLTVSSDYKDDDDK
For B2, the binding entry in assay [1] and in assay [2] was “binds” each time.

B3: MABL2-scFv <HL-4> (scFv)
scFv: QVQLQQSGPELVKPGASVKMSCKASGYTFANHVIHWVKQKPGQGLEWIGYIYPYNDGTKYNEKFKDKATLTSDKSSTTAYMDLSSLASEDSAVYYCARGGYYTYDDWGQGTTLTVSSGGGSDVVMTQSPLSLPVSLGDQASISCRSSQSLVHSNGKTYLHWYLQKPGQSPKLLIYKVSNRFSGVPDRFSGSGSVTDFTLMISRVEAEDLGVYFCSQSTHVPYTFGGGTKLEIKDYKDDDDK
Regarding B3, the binding result in assay [1] and in assay [2] was “binds” in each case.

B4: MABL2-scFv <LH-7> (scFv)
scFv: DVVMTQSPLSLPVSLGDQASISCRSSQSLVHSNGKTYLHWYLQKPGQSPKLLIYKVSNRFSGVPDRFSGSGSVTDFTLMISRVEAEDLGVYFCSQSTHVPYTFGGGTKLEIKSGGGGGGQVQLQQSGPELVKPGASVKMSCKASGYTFANHVIHWVKQKPGQGLEWIGYIYPYNDGTKYNEKFKDKATLTSDKSSTTAYMDLSSLASEDSAVYYCARGGYYTYDDWGQGTTLTVSSDYKDDDDK
On to B4, for which the binding entry in assay [1] and in assay [2] was “binds” in each case.

B5: MABL2-scFv <HL-3> (scFv)
scFv: QVQLQQSGPELVKPGASVKMSCKASGYTFANHVIHWVKQKPGQGLEWIGYIYPYNDGTKYNEKFKDKATLTSDKSSTTAYMDLSSLASEDSAVYYCARGGYYTYDDWGQGTTLTVSSGGSDVVMTQSPLSLPVSLGDQASISCRSSQSLVHSNGKTYLHWYLQKPGQSPKLLIYKVSNRFSGVPDRFSGSGSVTDFTLMISRVEAEDLGVYFCSQSTHVPYTFGGGTKLEIKDYKDDDDK
B5: the binding result in assay [1] and in assay [2] was “binds” throughout.

B6: MABL2-scFv <LH-3> (scFv)
scFv: DVVMTQSPLSLPVSLGDQASISCRSSQSLVHSNGKTYLHWYLQKPGQSPKLLIYKVSNRFSGVPDRFSGSGSVTDFTLMISRVEAEDLGVYFCSQSTHVPYTFGGGTKLEIKSGGQVQLQQSGPELVKPGASVKMSCKASGYTFANHVIHWVKQKPGQGLEWIGYIYPYNDGTKYNEKFKDKATLTSDKSSTTAYMDLSSLASEDSAVYYCARGGYYTYDDWGQGTTLTVSSDYKDDDDK
In the case of B6, the binding result in assay [1] and in assay [2] was “binds” each time.

B7: MABL2-scFv <LH-6> (scFv)
scFv: DVVMTQSPLSLPVSLGDQASISCRSSQSLVHSNGKTYLHWYLQKPGQSPKLLIYKVSNRFSGVPDRFSGSGSVTDFTLMISRVEAEDLGVYFCSQSTHVPYTFGGGTKLEIKSGGGGGQVQLQQSGPELVKPGASVKMSCKASGYTFANHVIHWVKQKPGQGLEWIGYIYPYNDGTKYNEKFKDKATLTSDKSSTTAYMDLSSLASEDSAVYYCARGGYYTYDDWGQGTTLTVSSDYKDDDDK
Take B7: the binding entry in assay [1] and in assay [2] was “binds” throughout.

B8: MABL2-scFv <LH-4> (scFv)
scFv: DVVMTQSPLSLPVSLGDQASISCRSSQSLVHSNGKTYLHWYLQKPGQSPKLLIYKVSNRFSGVPDRFSGSGSVTDFTLMISRVEAEDLGVYFCSQSTHVPYTFGGGTKLEIKSGGGQVQLQQSGPELVKPGASVKMSCKASGYTFANHVIHWVKQKPGQGLEWIGYIYPYNDGTKYNEKFKDKATLTSDKSSTTAYMDLSSLASEDSAVYYCARGGYYTYDDWGQGTTLTVSSDYKDDDDK
Consider B8, for which the binding entry in assay [1] and in assay [2] was “binds” throughout.

B9: MABL2-scFv <HL-7> (scFv)
scFv: QVQLQQSGPELVKPGASVKMSCKASGYTFANHVIHWVKQKPGQGLEWIGYIYPYNDGTKYNEKFKDKATLTSDKSSTTAYMDLSSLASEDSAVYYCARGGYYTYDDWGQGTTLTVSSGGGGGGSDVVMTQSPLSLPVSLGDQASISCRSSQSLVHSNGKTYLHWYLQKPGQSPKLLIYKVSNRFSGVPDRFSGSGSVTDFTLMISRVEAEDLGVYFCSQSTHVPYTFGGGTKLEIKDYKDDDDK
Consider B9, for which the binding result in assay [1] and in assay [2] was “binds” each time.

B10: MABL2-scFv <HL-6> (scFv)
scFv: QVQLQQSGPELVKPGASVKMSCKASGYTFANHVIHWVKQKPGQGLEWIGYIYPYNDGTKYNEKFKDKATLTSDKSSTTAYMDLSSLASEDSAVYYCARGGYYTYDDWGQGTTLTVSSGGGGGSDVVMTQSPLSLPVSLGDQASISCRSSQSLVHSNGKTYLHWYLQKPGQSPKLLIYKVSNRFSGVPDRFSGSGSVTDFTLMISRVEAEDLGVYFCSQSTHVPYTFGGGTKLEIKDYKDDDDK
Turning to B10, the binding result in assay [1] and in assay [2] was “binds” in each case.
